Chains of the proteins cited; added tags and fusions are not shown. Lines headed by an entry give the natural chain unless they say otherwise; changes in a name come on top.
UniProt P51450: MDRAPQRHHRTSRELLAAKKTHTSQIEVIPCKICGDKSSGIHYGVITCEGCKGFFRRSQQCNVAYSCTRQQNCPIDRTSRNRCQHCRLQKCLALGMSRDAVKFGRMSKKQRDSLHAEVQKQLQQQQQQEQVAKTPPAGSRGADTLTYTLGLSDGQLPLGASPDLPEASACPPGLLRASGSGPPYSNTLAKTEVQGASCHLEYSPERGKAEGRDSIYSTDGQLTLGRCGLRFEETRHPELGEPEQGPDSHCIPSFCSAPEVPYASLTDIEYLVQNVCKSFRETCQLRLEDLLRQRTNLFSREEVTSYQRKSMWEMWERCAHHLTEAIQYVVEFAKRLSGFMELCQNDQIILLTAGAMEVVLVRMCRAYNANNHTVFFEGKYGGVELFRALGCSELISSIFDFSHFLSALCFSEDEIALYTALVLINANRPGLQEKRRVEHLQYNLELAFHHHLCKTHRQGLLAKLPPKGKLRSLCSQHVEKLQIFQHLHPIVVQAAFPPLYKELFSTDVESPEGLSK

In all, about 310,000 compounds went through this assay and about 17,000 (5.5%) were called active. The inconclusive results got no clear call from the source; some entries with a clear call stand among them for comparison. The call rests on the fitted dose curve; in most records, active means well fitted inhibition curve with a large enough effect; inconclusive means small, poorly fitted or top-dose-only effect, or effect the other way; inactive means no such curve, though single readings can be large or run the other way. Where the call is inconclusive, the potency comes from a doubtful curve fit.
Each molecule was assayed against Nuclear receptor ROR-gamma (Mus musculus) (UniProt P51450) (assay: qHTS for inhibitors of ROR gamma transcriptional activity). Settings: Drosophila S2 Gal4-RORgamma UAS-luciferase reporter, 20 h; series mostly up to 53.6 µM.
Summary of the method: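 Drosophila Schneider cells stably carrying a metallothionein-driven Gal4 DBD–ROR gamma fusion and a UAS-Photinus luciferase reporter were exposed to compound for 1 hr, then induced with copper sulfate (700 uM final) for 20 hr at ambient temperature before luminescence reading.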
In the case of COc1ccccc1C(=O)NNC(=O)c1cccc(F)c1, the Potency is reported as active: 10 µM.
In the case of CCOc1ccc(OCc2ccc(C(=O)N3CCCC3)o2)cc1, the Potency is reported as active: 2.51 µM.
With COc1ccc(CC(=O)NC2CCSc3ccccc32)cc1OC (configuration not stated) the Potency was “inactive”.
In the case of CCN(CC)S(=O)(=O)c1cccc(-c2n[nH]c(=S)n2/N=C/c2ccc(OC)cc2)c1, the Potency is reported as inconclusive: 7.08 µM [inhibitor, partial curve].
In the case of S=C(NCc1cccs1)Nc1ccc(Br)cc1Cl, the Potency is reported as inconclusive: 35.5 µM [inhibitor, single point].
Clc1ccc(-c2nnc(SCc3ccon3)o2)c(Cl)c1 was tested, and the Potency was inconclusive: 10 µM [inhibitor, partial curve, poor fit].
CCc1ccc(NC(=O)c2cnn3ccccc23)cc1 was tested, and the Potency was active: 12.6 µM.
With O=C(O)c1ccc(Cl)c(NC(=S)NC(=O)c2cccc(COc3ccccc3)c2)c1 the Potency was inconclusive: 3.98 µM [activator, partial curve, poor fit].
O=C(N/N=C/c1cc([N+](=O)[O-])ccc1O)C1CCCCC1 was tested, and the Potency was active: 0.501 µM.
For CSc1nc2ccc(NS(=O)(=O)c3cccc(Cl)c3Cl)cc2s1, the Potency was “inactive”.
For N#C/C(=C\c1cccc(NC(=O)c2ccccc2Cl)c1)C(=O)NCCc1ccccc1, the Potency was inconclusive: 35.5 µM [inhibitor, single point].
CCOC(=O)C1=C(C)N(CC)C(=S)NC1c1ccccc1OC(F)F (configuration not stated) was tested, and the Potency was active: 2 µM.
CCOc1ccc(C2=Nn3c(nnc3-c3ccccn3)SC2)cc1 was tested, and the Potency was “inactive”.
With CSc1nc2ccc(NC(=O)c3ccccn3)cc2s1 the Potency was inconclusive: 15.8 µM [inhibitor, single point].
With CCOC(=O)c1c(-c2ccccc2)oc2ccc(OCC(O)CNCCN(C)C)cc12 (configuration not stated) the Potency was inconclusive: 12.6 µM [inhibitor, single point].
With C=CCOc1c(Br)cc(CNc2ccc(NC(=O)CCC)cc2)cc1OCC the Potency was inconclusive: 11.2 µM [activator, partial curve].
In the case of Cc1nc(S(=O)(=O)c2ccc(Cl)cc2)c(NCc2ccccc2)o1, the Potency is reported as “inactive”.
For CCn1nc(NC(=O)c2ccncc2)c2cc3cc(C)ccc3nc21, the Potency was inconclusive: 0.501 µM [activator, full curve].
In the case of NC(=S)N=Nc1c(O)n(CCCl)c2ccc(Cl)cc12, the Potency is reported as active: 0.794 µM.
With CC(C)C(=O)Nc1cccc(C(=O)OCC(=O)c2ccc(Cl)cc2Cl)c1 the Potency was inconclusive: 14.1 µM [activator, partial curve].
CCc1ccc(O)c(N=Cc2ccccc2O)c1 was tested, and the Potency was active: 12.6 µM.
Cc1ccsc1C(=O)OCc1csc(-c2ccccc2)n1 was tested, and the Potency was inconclusive: 10 µM [inhibitor, single point].
Cc1ccc(/C=C/C(=O)N2CCN(c3ncccn3)CC2)o1 was tested, and the Potency was inconclusive: 35.5 µM [inhibitor, single point].
COc1cccc(-c2cc(C(=O)NC3CCCC3)no2)c1 was tested, and the Potency was “inactive”.
For Cc1cccc(C(=O)NNC(=O)c2ccccc2)c1, the Potency was “inactive”.
O=C(NNc1c2ccccc2nc2ccccc12)C12CC3CC(CC(C3)C1)C2 was tested, and the Potency was inconclusive: 2.51 µM [inhibitor, partial curve, poor fit].
With O=C(Nc1ncn[nH]1)c1ccccc1O the Potency was inconclusive: 35.5 µM [inhibitor, single point].
For CS(=O)c1ccccc1COC(=O)Nc1cccc(Cl)c1 (configuration not stated), the Potency was inconclusive: 6.31 µM [activator, full curve].
COc1ccc(NS(=O)(=O)c2ccc3c(c2)OCCO3)cc1OC was tested, and the Potency was inconclusive: 3.98 µM [activator, single point].
With O=C1N/C(=C\c2ccc(N3CCOCC3)c(F)c2)C(=O)N1Cc1ccccc1 the Potency was “inactive”.
For Cc1cccc(NC(=S)NC(=O)/C=C/c2ccco2)n1, the Potency was active: 10 µM.
Cc1ccc(NC(=O)c2cc3c(s2)CCCC3)cc1S(=O)(=O)Nc1ccccc1Cl was tested, and the Potency was inconclusive: 14.1 µM [activator, partial curve].
C/C(=N\NC(=O)c1cc(-c2ccc(Cl)s2)[nH]n1)c1ccncc1 was tested, and the Potency was inconclusive: 14.1 µM [activator, partial curve, poor fit].
CN(C(=O)c1ccco1)c1nnc(C23CC4CC(CC(C4)C2)C3)s1 was tested, and the Potency was inconclusive: 20 µM [inhibitor, single point].
With Cc1cc(Nc2ccc([N+](=O)[O-])cc2)c2ccccc2n1 the Potency was inconclusive: 28.2 µM [inhibitor, single point].
In the case of Cc1ccc(-c2cn3c(=O)cc(C)[nH]c3n2)cc1, the Potency is reported as active: 7.94 µM.
With N#C/C(=C(/O)CO/N=C/c1ccccc1Cl)c1nc2ccccc2[nH]1 the Potency was “inactive”.
CNS(=O)(=O)c1ccc(C)c(S(=O)(=O)NC)c1 was tested, and the Potency was “inactive”.
C=CCn1c(=O)c(C(=O)Nc2ccccc2C(=O)OCC)c(O)c2ccccc21 was tested, and the Potency was inconclusive: 10 µM [inhibitor, single point].
In the case of NNC(=O)CSc1nnnn1-c1ccccc1, the Potency is reported as “inactive”.
For COc1cccc(OC)c1CN1CCCC(C(=O)c2ccccc2SC)C1 (configuration not stated), the Potency was inconclusive: 14.1 µM [inhibitor, single point].
In the case of N#C/C(=C\c1ccc(N2CCOCC2)o1)c1nc2ccccc2[nH]1, the Potency is reported as active: 15.8 µM.
For COc1ccc(CNC(=O)c2cccs2)cc1, the Potency was inconclusive: 31.6 µM [activator, single point].
Cc1cc(C(=O)N/N=C/c2cc(Cl)cc([N+](=O)[O-])c2O)n[nH]1 was tested, and the Potency was active: 7.94 µM.
For Cc1ccc(-c2nn(CC(=O)NCc3cc(-c4nn(C)c(=O)c5ccccc45)ccc3C)c(=O)c3ccccc23)cc1, the Potency was inconclusive: 6.31 µM [inhibitor, single point].
In the case of COc1ccc(NS(=O)(=O)c2ccc(N3CCN(CCO)CC3)c([N+](=O)[O-])c2)cc1, the Potency is reported as inconclusive: 11.2 µM [activator, partial curve].
In the case of CSCCC(NC(=O)c1ccc(C(C)(C)C)cc1)C(=O)O (configuration not stated), the Potency is reported as “inactive”.
With COC(=O)c1ccc(CSc2n[nH]c(C)n2)o1 the Potency was “inactive”.
For COc1ccc(CCNC2CC(=O)N(CCc3ccc(OC)c(OC)c3)C2=O)cc1OC (configuration not stated), the Potency was inconclusive: 28.2 µM [inhibitor, single point].
In the case of N#CC(c1cccc(C(F)(F)F)c1)(c1ncc(C(F)(F)F)cc1Cl)N1CCOCC1 (configuration not stated), the Potency is reported as inconclusive: 35.5 µM [inhibitor, single point].
In the case of COc1ccc(CN=Cc2[nH]c3ccc(Br)c(Cl)c3c2O)cc1, the Potency is reported as inconclusive: 20 µM [inhibitor, partial curve, poor fit].
For Cc1nc2ccccc2n1Cc1ccc(Cl)cc1, the Potency was inconclusive: 35.5 µM [inhibitor, single point].
For COc1ccc(NC(=O)/C(C#N)=C\c2ccc(OCc3ccc(C(=O)O)cc3)c(OC)c2)cc1, the Potency was “inactive”.
With Cc1ccc(CNc2oc(-c3cccs3)nc2C#N)cc1 the Potency was inconclusive: 10 µM [activator, partial curve].
With OCCCNc1cc(-c2ccnc(Nc3cccc(Cl)c3)n2)ccn1 the Potency was active: 1.78 µM.
For COc1ccc(N2CCN(C(=O)Cc3ncc(C(F)(F)F)cc3Cl)CC2)cc1, the Potency was “inactive”.
In the case of Cc1ccc2[nH]c3c(N4CCN(Cc5ccc6c(c5)OCO6)CC4)ncnc3c2c1, the Potency is reported as inconclusive: 25.1 µM [inhibitor, single point].
CC1Oc2ccccc2N(CC(=O)c2ccccc2)C1=O (configuration not stated) was tested, and the Potency was “inactive”.
Cn1c(=O)n(C)c2cc([N+](=O)[O-])c(N3CCN(S(C)(=O)=O)CC3)cc21 was tested, and the Potency was “inactive”.
Cc1nnc(-c2cnn(-c3ccccc3)c2N)n1Cc1ccc(F)cc1 was tested, and the Potency was inconclusive: 35.5 µM [inhibitor, single point].
With O=S(=O)(NC1CC(NS(=O)(=O)OCC(Cl)(Cl)Cl)C2CCCCC12)OCC(Cl)(Cl)Cl (configuration not stated) the Potency was inconclusive: 14.1 µM [inhibitor, single point].
With Nc1c(C(=O)N/N=C/c2ccc(F)cc2)oc2nc(-c3ccccc3)cc(-c3ccco3)c12 the Potency was “inactive”.
For CCC(Sc1ccccn1)C(=O)Nc1nnc(C)s1 (configuration not stated), the Potency was active: 10 µM.
For COc1ccccc1-c1ccc2ncnc(Nc3ccccc3)c2c1, the Potency was “inactive”.
With COc1cccc(N2CCN(C(=S)Nc3ccc(C)cc3C)CC2)c1 the Potency was active: 5.62 µM.
With CNC(=S)N1N=C(c2ccc(OC)cc2)CC1c1ccc(N(C)C)cc1 (configuration not stated) the Potency was active: 12.6 µM.
For O=C(NNC(=S)NC(=O)c1ccccc1)c1ccc([N+](=O)[O-])cc1, the Potency was active: 3.55 µM.
In the case of Cc1cc2ncn(C(=O)N3CCC(C)CC3)c2cc1C, the Potency is reported as “inactive”.
Cc1ccc(C)c(CSC2=NCCN2S(=O)(=O)c2ccccc2)c1 was tested, and the Potency was inconclusive: 12.6 µM [activator, single point].
In the case of O=C(CSCc1c(F)cccc1Cl)NNC(=S)NC1CCCCC1, the Potency is reported as inconclusive: 35.5 µM [inhibitor, single point].
CC(C)(C)N(Cc1ccccc1)C(=O)c1ccc(Br)o1 was tested, and the Potency was inconclusive: 11.2 µM [activator, partial curve].
CN(C)S(=O)(=O)c1cc(NC(=O)CNCc2ccccc2)ccc1Cl was tested, and the Potency was inconclusive: 11.2 µM [activator, partial curve].
With CCOCCCNC(=S)NCCCNc1nc2cc3c(cc2cc1C#N)OCO3 the Potency was inconclusive: 35.5 µM [activator, single point].
CCOc1ccccc1N(CC(=O)NCC1CCCO1)C(=O)CCC(=O)Nc1ccccn1 (configuration not stated) was tested, and the Potency was active: 35.5 µM.
In the case of COc1ccc(CC(=O)OCC(=O)Nc2cc(S(=O)(=O)N3CCOCC3)ccc2N2CCCC2)cc1, the Potency is reported as “inactive”.
With CCOc1ccc(-c2[nH]ncc2-c2ccc(Cl)cc2)c(O)c1 the Potency was active: 11.2 µM.
In the case of CC(=O)NC(CCCN1C(=O)c2ccccc2C1=O)c1nnn(C)n1 (configuration not stated), the Potency is reported as “inactive”.

— PubChem BioAssay AID2551 (National Center for Advancing Translational Sciences (NCATS), 2010)
Further: nearly all actives have a fitted effect of over 60% in size.
Potency means the concentration at half of the fitted maximal effect.
